Most values lie at the floor of the assay. Slopes are relative: functional sequences can read slightly below zero.
What follows are substances tested on Saccharomyces cerevisiae PS128 hsf1 delta, HSF1(1-493) fusion (assay: growth estimate (transactivation domain function in HSF1 fusion, heat-shock survival) (a.u. (slope of normalised read count over time)); higher = stronger growth at 37°C, i.e. more transactivation activity). Conditions: library: random library.

Row | Substance | growth estimate
1 | DSR | < -0.25
2 | RLSTAQCSNHSRSKPQAWVQ | < -0.25
3 | RLRSQVGRVITKCQNSCTLW | < -0.25
4 | ALDHSCSENTERHRGADLTL | < -0.25
5 | GSATSIVM | -0.199
6 | SVSCILVDLPRV | -0.246
7 | RLNRYLQLYMKREFYYRASA | < -0.25
8 | MDRRFT | < -0.25
9 | SLKCN | -0.197
10 | WSTVEPVSSKGPVAARTFAG | < -0.25
11 | DVRSELERQVCRSDLEIAYG | < -0.25
12 | SGPRSLPTGVCVV | < -0.25
13 | SRITETWTSCDQP | < -0.25
14 | RHVSTMVVKFRYTRRSRSDV | < -0.25
15 | GKND | < -0.25
16 | RSCTRARTFFGLHLPQSEHT | < -0.25
17 | WVAVPQRRLTTPVICR | < -0.25
18 | RLTAAAGNRSTPFE | < -0.25
19 | SLNQHLLRNFISPRSQPVVR | < -0.25
20 | GTNGSQQRYF | < -0.25
21 | GTMS | < -0.25
22 | RIAVESAWTRRLRIRYDQPL | < -0.25
23 | FDAYVLKVLGAKSSRRLRVF | < -0.25
24 | TRPHLTKGRTLLRQLGLEGI | < -0.25
25 | DKVFHHLWPE | < -0.25

Row | Substance | growth estimate
26 | RLSYRSRVSLLASHGCVVTG | -0.245
27 | EADTNYSPFCFGILGLHRPT | < -0.25
28 | CFGAGRTN | < -0.25
29 | SLKGNISTSQIWRLQRLV | < -0.25
30 | SGGSFGPDHTRCYFRKRQLD | < -0.25
31 | YHVE | < -0.25
32 | GCIQTWEQQATSLKVGPSGR | < -0.25
33 | PDTGRRSHLGVRSLGDGRYE | < -0.25
34 | TLGWDMLGRGSIIVPKFRNP | < -0.25
35 | IHSKL | < -0.25
36 | SMQSGSLPACIAPGARGPTD | < -0.25
37 | RNQ | < -0.25
38 | CVEHSYPVKQFHQLGICFGT | < -0.25
39 | FVERGGVRVLHSQEYGFCDV | < -0.25
40 | LASGSPAMLRSVYTLHSFES | -0.235
41 | VSEVCDMLRFCI | < -0.25
42 | LRQLSRAYNEVV | < -0.25
43 | MVPDPTL | < -0.25
44 | YRGRSYAVLNYWWYDRVARR | < -0.25
45 | PGGGRVGARRIARQVTGFVV | < -0.25
46 | TLSSYTA | < -0.25
47 | RSYVSELILPAAKRQLQGTT | < -0.25
48 | VANERGKEGSGTTDVPAAQP | < -0.25
49 | AGRQDHVVNHHRPAEVDPEA | < -0.25
50 | TASIRSLG | < -0.25

Row | Substance | growth estimate
51 | AGTAGAVIRCYMRVALSSTT | -0.245
52 | PPFCGYVIQVGSVAPPYPLH | < -0.25
53 | SRDREPEVKRPCLLDITCLY | < -0.25
54 | LGRSRQI | < -0.25
55 | RHCLIRRERFASTRLPPLRS | < -0.25
56 | GSVYWPYAC | < -0.25
57 | RET | < -0.25
58 | DRSCAKNPTSCQPHTGRQQY | < -0.25
59 | VALSEYARLVNSAKFDPLGG | < -0.25
60 | ISG | < -0.25
61 | HTDTSK | < -0.25
62 | SMVPQDSGHLFCTSDSPSAH | < -0.25
63 | KSVGRPLGWTIVDGTENSPP | < -0.25
64 | VMAGLSIKVTRRSPCFRAAL | < -0.25
65 | VGGACMSHLLTKCPVISARC | < -0.25
66 | GNACTDKEMASDLVMQAGSM | < -0.25
67 | SLSCAGYACPGLSNCASRWL | < -0.25
68 | LRPDDIRSDYPGRSKTNQYT | < -0.25
69 | SHRPNPVWYDTCAQLLRHFV | < -0.25
70 | ALAGAVISLLDTND | < -0.25
71 | QLGPTFAFVTAHNGAGRCLQ | < -0.25
72 | GQPKTKVLC | < -0.25
73 | SLFLPRPRWG | < -0.25
74 | RLCYSQVSALNIRFIRG | < -0.25
75 | AVSVAPL | < -0.25

Row | Substance | growth estimate
76 | ILMGV | < -0.25
77 | LPF | < -0.25
78 | LIGGWTL | < -0.25
79 | FMLSV | < -0.25
80 | CHPRRMWIFSKV | < -0.25
81 | TVLAPRTVSLTLL | < -0.25
82 | SSFGRAAWLPFYDYLGHDDI | 0.0387
83 | LLRHLRHFM | < -0.25
84 | MLHISVSLLWGS | < -0.25
85 | VCCSAQGIVISGRF | < -0.25
86 | LRLSWVGVSLPSSQTTIMLT | < -0.25
87 | RTGVMCH | < -0.25
88 | RSRGIVWDFVVSLGSSISPQ | < -0.25
89 | RYIPS | < -0.25
90 | HGQLR | < -0.25
91 | DVYPCLICH | < -0.25
92 | GSYGCCPDRA | < -0.25
93 | FRSSGGPWGSRGIKSSALQC | < -0.25
94 | GNAGGQPLGSPSFQVYGR | < -0.25
95 | VRQCQWLRLGNTVLGGPSAR | < -0.25
96 | GGAWIPGDFRKVWCRPNSRF | -0.248
97 | TVMRDKNVIRNGAREICI | < -0.25
98 | MGIIRTDKPIQLVR | < -0.25
99 | LGGYI | < -0.25
100 | CGGRGARQ | < -0.25

Row | Substance | growth estimate
101 | KFS | < -0.25
102 | ISCEQGKPKASSCTLGVAVV | < -0.25
103 | GFDCYFSRLSLNHHHGELVC | < -0.25
104 | DDMRSGGGVLLG | < -0.25
105 | DSCLGRGRYCVLVMLDLSPG | < -0.25
106 | LRKKLQSI | < -0.25
107 | KPLSKA | < -0.25
108 | QGLVPLEVA | < -0.25
109 | GDRRVREYRGLWGSSGCRRT | < -0.25
110 | FPRMSGKTLWWLSCLPSSGD | < -0.25
111 | GRELPAIGIQLLVRAASETV | < -0.25
112 | TGPPSREHCGKAAQPGDKWP | < -0.25
113 | LNVTRALDIRYQFKRHLQDT | < -0.25
114 | CRS | < -0.25
115 | HTAAAVRATTSTAQGQVF | < -0.25
116 | PDLRGARPFRLFD | < -0.25
117 | LRRRCMIEGAF | < -0.25
118 | QAVHYFSGRRQGSRGPYSGW | < -0.25
119 | LKVPCRERSRSLTVSVCRLN | < -0.25
120 | HLGIRSDTVRRGSYGGGIWH | < -0.25
121 | YISQLDLCNGVGNLF | < -0.25
122 | GLVTPCNFVTPNPDSGSYCT | < -0.25
123 | FSQGYVPHREAH | < -0.25
124 | IRLLRPP | < -0.25
125 | GQSVSSNRGPGSVPWVTRLR | < -0.25

Row | Substance | growth estimate
126 | VVFAGHKGRPLCDRLVYVAS | < -0.25
127 | RGLNYIVRLVLVFASA | < -0.25
128 | SSLSKHPTVSGSYRVAECTV | < -0.25
129 | WTLRP | < -0.25
130 | SVECRKIRPEELRFQRRAHY | < -0.25
131 | PSPRLDFHWMDATSLAKGPV | < -0.25
132 | PGIRSQLHVNGVNYSLSTAT | -0.199
133 | CRGRPKMRRCLELKCAETGA | < -0.25
134 | CQLDSRVYAAD | < -0.25
135 | TTRYLCRGMVLCSQCCRRAV | < -0.25
136 | RSSTFRLLDTLNWRGKGPLF | < -0.25
137 | LADLIVMLLCGITQSALPFA | < -0.25
138 | VADAPTRLHVRDEGLVIEGP | < -0.25
139 | QGHE | < -0.25
140 | FAGSTGDRSPFVHLLWQSRK | < -0.25
141 | KGVSWP | 0.066
142 | LRFRVPDF | < -0.25
143 | LSGVIRRSLHLILGYLDVPC | < -0.25
144 | GRIRKTTRCTPTRL | < -0.25
145 | RPTRR | < -0.25
146 | GSVGLPIANAFFDTRSCR | < -0.25
147 | SEGFRTSPFTGQLRPWVCRR | < -0.25
148 | SSYQAATVISVNQNSLGMTP | < -0.25
149 | ETPS | < -0.25
150 | GPLRLVSAIQMKACAYLRHG | < -0.25

Row | Substance | growth estimate
151 | YGVVLTSGYDQFNFRRASLS | < -0.25
152 | GVGNELWLGLSSLAHMGNSP | < -0.25
153 | CPESAKRALMTGGRTGAMGV | < -0.25
154 | NGQTKLTCYQPVRPVCCFPL | < -0.25
155 | DRAAAGSVTKFFPRPSTQVR | < -0.25
156 | KKTL | < -0.25
157 | SGSCPLERGRSYDLRDDSDG | < -0.25
158 | LRDTYMLHDVITVDL | < -0.25
159 | LLGCFV | < -0.25
160 | HSYDSTCGI | < -0.25
161 | LRSGWLLICLHSISGGIPRE | < -0.25
162 | CHDGRPTFGLTTRRVSKKSR | < -0.25
163 | LIFTYFCSGRSALKSFQPRA | < -0.25
164 | EGNTWCV | < -0.25
165 | WRGVPSDSRNPI | < -0.25
166 | ARFSILCKGSNHVEKGFRSD | < -0.25
167 | ATRRRNT | < -0.25
168 | LYRGHQPARCYGASDEEAAR | < -0.25
169 | HPKGKPPRHRNQGAGPRQSG | < -0.25
170 | WEGSQLGSNVLISTSCGRTA | < -0.25
171 | LGLARCMQS | < -0.25
172 | WVQRGPTPLGMGVRGARKRH | < -0.25
173 | YEWFPGMSA | < -0.25
174 | GWGANFPSNGCTNDRPGA | < -0.25
175 | AVYTLFLPAPGVPEGPSRRA | < -0.25

As entered above:
Value for LYRGHQPARCYGASDEEAAR under growth estimate: < -0.25
Value for LLGCFV under growth estimate: < -0.25

(continued)

Row | Substance | growth estimate
176 | GLLGKVAER | < -0.25
177 | ADRIL | < -0.25
178 | VVRGGWASEQVVIV | < -0.25
179 | PYGRRSFLICRRTA | < -0.25
180 | QNIRDLRRAWLGCREAHVGL | < -0.25
181 | MGERLVGAASCVHRACSSFA | < -0.25
182 | ENRDVALRPIVVFGGLGCS | < -0.25
183 | VWSQGRGISNS | < -0.25
184 | RGLVGNLCKLSESGRDGITV | < -0.25
185 | RVVMTGFFSACGESQLQMPG | < -0.25
186 | PKTGNYHVDKPGTEPMVP | < -0.25
187 | TGNQECTRA | < -0.25
188 | SGVVLVCGGRDYIIMIWE | < -0.25
189 | RLLVPGLHLWGLTYQLRSFV | < -0.25
190 | RSVALPGGDQKRAAEASTTH | < -0.25
191 | LHFDSQGNQYHFPLVYGPVC | -0.246
192 | LMSFWRTLIVIV | < -0.25
193 | GLTRPLYQYLV | < -0.25
194 | TDLLTSVHCDLGVV | < -0.25
195 | RNKLRQRRAP | < -0.25
196 | VRSHPVVMDAAVNLGSQNPG | < -0.25
197 | GTVFMDVNIRVLHTARHSPP | < -0.25

Pulled one by one from above, six records:
Row | Substance | growth estimate
14 | RHVSTMVVKFRYTRRSRSDV | < -0.25
91 | DVYPCLICH | < -0.25
135 | TTRYLCRGMVLCSQCCRRAV | < -0.25
6 | SVSCILVDLPRV | -0.246
35 | IHSKL | < -0.25
32 | GCIQTWEQQATSLKVGPSGR | < -0.25
